# This is one part of the list.
# The chains behind the UniProt entries cited, without tags or fusion partners. Where a name states a change or a piece, a line headed by the entry shows the natural chain unless it says otherwise.
# UniProt Q8NB78: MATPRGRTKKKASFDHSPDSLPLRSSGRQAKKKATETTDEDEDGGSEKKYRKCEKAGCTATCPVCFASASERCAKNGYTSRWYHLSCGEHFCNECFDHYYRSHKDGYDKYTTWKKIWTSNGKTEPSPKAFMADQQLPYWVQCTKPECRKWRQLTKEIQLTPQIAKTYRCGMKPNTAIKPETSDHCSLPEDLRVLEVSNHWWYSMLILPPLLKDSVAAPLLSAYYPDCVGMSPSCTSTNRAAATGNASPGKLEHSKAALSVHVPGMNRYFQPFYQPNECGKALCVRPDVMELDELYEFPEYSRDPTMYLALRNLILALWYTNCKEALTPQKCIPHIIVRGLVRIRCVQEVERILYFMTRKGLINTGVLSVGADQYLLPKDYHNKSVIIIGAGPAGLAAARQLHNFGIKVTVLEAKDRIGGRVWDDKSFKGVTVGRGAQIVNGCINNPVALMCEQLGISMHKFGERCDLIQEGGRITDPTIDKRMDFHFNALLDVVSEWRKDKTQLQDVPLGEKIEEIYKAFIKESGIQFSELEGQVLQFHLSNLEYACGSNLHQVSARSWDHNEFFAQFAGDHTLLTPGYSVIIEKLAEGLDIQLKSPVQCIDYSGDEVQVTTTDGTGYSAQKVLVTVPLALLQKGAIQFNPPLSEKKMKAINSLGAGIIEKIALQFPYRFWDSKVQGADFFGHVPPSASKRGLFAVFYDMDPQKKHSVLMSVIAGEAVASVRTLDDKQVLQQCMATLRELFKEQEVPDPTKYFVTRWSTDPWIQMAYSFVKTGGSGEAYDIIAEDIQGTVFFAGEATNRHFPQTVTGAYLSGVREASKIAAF
# UniProt Q96GX9: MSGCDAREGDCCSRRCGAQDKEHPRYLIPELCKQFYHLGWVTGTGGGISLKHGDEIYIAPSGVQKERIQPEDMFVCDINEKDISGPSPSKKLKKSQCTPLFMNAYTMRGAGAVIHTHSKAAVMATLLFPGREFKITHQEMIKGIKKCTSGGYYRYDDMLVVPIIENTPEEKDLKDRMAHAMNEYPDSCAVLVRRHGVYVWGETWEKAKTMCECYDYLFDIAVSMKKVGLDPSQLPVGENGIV
# UniProt Q9ULC5: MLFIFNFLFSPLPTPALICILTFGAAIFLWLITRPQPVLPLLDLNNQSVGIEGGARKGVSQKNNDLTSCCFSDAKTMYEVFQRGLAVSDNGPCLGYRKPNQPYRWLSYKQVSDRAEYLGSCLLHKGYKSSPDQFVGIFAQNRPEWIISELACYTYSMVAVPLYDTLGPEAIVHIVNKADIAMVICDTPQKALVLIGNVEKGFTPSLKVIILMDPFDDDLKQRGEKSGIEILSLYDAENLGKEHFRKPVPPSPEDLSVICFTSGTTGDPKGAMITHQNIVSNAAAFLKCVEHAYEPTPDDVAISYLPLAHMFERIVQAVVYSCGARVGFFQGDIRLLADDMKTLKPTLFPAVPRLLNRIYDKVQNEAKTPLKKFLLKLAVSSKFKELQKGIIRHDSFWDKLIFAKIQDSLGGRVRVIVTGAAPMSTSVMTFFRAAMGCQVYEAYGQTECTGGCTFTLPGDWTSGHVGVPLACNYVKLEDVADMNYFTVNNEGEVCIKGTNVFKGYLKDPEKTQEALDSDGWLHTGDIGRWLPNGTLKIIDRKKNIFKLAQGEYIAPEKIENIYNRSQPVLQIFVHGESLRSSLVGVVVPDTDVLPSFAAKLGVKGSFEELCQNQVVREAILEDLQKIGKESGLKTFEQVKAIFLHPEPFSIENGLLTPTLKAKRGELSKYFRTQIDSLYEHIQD
# UniProt Q6NS38: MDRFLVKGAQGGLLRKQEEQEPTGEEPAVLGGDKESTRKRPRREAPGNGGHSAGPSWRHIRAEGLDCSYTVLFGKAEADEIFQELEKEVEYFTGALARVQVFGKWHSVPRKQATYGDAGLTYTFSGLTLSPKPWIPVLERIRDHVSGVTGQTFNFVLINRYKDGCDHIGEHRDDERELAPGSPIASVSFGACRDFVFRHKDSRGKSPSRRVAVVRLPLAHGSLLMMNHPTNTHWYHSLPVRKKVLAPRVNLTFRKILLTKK
# UniProt O95831, whole entry: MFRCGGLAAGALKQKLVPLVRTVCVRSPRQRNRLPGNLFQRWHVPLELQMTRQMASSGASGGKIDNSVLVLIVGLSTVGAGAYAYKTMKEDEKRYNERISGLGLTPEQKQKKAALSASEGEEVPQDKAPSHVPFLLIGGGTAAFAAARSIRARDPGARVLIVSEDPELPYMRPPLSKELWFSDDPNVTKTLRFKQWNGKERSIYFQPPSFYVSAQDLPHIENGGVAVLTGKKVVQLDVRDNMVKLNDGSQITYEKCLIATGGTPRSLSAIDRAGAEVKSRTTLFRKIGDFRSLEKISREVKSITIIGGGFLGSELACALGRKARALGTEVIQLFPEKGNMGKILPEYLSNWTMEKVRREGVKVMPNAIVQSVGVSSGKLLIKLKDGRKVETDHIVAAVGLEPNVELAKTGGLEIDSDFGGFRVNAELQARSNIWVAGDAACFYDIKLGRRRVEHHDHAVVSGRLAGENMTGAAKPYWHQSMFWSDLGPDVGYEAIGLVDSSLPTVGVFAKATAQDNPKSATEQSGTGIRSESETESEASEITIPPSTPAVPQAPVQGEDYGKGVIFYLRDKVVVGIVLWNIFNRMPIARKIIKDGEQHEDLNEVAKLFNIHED
# UniProt P15309: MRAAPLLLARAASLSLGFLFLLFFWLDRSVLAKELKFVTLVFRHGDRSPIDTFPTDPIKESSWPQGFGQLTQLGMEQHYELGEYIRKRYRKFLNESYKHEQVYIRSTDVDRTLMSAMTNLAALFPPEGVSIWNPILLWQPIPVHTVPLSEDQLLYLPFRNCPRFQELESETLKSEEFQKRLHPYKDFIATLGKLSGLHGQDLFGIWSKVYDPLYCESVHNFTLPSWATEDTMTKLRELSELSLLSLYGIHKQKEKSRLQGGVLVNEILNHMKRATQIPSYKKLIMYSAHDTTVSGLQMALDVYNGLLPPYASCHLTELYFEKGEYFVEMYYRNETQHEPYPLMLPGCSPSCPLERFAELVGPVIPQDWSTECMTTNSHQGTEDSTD
# UniProt O95433, whole entry: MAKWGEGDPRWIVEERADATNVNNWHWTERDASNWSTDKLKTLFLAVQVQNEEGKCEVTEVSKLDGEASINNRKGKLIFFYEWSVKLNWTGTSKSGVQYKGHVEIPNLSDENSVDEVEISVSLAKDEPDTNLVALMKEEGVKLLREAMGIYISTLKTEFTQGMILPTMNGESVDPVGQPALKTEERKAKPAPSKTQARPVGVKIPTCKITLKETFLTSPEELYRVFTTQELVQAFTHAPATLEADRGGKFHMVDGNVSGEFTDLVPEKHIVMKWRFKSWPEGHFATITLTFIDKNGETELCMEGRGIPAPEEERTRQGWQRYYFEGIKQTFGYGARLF
# UniProt Q9NP61: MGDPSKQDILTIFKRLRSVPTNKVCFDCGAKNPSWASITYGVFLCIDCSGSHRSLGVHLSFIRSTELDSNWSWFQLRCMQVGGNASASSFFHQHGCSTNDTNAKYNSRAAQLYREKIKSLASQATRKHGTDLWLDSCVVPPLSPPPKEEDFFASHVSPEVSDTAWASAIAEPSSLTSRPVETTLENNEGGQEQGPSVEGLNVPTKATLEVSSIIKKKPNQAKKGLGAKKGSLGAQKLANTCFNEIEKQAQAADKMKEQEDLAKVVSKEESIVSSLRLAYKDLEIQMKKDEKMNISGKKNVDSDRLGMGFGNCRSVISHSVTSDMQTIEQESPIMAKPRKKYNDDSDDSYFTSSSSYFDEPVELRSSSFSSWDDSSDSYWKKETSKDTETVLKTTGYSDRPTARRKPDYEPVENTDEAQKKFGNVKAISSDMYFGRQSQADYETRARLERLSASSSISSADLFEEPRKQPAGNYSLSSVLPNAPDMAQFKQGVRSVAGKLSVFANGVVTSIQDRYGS
# UniProt P41227: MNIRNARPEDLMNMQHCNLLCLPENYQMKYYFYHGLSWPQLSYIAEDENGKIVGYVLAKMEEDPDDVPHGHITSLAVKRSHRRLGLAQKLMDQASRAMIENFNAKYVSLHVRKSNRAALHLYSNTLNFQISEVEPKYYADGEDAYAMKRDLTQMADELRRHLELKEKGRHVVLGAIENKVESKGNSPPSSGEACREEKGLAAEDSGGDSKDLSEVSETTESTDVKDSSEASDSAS
# UniProt Q6RW13: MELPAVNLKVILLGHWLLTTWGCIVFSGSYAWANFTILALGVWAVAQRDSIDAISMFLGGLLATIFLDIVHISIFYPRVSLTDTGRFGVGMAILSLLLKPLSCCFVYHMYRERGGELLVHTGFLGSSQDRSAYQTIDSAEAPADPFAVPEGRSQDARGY
# UniProt Q6ULP2: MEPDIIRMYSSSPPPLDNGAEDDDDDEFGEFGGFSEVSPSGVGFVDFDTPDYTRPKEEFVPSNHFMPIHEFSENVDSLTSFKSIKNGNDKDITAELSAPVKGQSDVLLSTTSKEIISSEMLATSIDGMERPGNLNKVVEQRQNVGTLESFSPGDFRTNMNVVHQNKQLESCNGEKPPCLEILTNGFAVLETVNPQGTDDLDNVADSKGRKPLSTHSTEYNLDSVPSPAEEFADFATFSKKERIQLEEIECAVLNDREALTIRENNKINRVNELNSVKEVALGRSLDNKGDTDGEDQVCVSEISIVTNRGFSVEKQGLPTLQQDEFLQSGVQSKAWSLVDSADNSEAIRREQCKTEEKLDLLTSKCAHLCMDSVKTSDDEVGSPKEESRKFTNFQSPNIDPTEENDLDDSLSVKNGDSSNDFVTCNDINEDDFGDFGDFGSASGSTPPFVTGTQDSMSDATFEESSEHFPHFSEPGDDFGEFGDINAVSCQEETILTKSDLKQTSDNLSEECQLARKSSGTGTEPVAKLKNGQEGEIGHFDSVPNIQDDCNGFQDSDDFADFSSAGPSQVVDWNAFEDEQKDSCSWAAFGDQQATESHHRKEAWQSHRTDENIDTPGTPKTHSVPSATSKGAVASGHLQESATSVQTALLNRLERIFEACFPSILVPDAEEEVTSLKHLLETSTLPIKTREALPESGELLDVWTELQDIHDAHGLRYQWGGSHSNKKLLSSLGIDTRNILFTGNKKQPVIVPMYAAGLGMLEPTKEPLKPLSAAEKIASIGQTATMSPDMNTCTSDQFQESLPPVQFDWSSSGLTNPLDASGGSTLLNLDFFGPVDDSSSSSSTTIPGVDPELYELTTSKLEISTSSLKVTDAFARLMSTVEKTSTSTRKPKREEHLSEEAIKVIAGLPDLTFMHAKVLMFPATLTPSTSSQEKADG
# UniProt P25098: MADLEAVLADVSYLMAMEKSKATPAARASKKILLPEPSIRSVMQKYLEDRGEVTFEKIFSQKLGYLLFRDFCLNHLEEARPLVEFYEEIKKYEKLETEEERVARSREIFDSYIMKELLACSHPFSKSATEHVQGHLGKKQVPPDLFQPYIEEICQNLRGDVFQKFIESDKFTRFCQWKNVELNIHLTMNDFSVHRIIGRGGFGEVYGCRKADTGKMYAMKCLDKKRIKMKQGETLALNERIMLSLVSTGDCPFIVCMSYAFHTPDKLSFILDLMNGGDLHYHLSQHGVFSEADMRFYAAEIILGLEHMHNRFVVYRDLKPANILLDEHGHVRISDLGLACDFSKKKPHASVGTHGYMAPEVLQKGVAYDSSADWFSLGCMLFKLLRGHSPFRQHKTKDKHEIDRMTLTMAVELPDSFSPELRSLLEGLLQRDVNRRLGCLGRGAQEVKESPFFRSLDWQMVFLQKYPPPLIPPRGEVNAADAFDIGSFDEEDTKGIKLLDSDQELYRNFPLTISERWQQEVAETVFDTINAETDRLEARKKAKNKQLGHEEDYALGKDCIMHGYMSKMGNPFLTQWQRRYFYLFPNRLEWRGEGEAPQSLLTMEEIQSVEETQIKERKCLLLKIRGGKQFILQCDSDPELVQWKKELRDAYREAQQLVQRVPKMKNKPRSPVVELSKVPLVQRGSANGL
# UniProt Q9BRR6: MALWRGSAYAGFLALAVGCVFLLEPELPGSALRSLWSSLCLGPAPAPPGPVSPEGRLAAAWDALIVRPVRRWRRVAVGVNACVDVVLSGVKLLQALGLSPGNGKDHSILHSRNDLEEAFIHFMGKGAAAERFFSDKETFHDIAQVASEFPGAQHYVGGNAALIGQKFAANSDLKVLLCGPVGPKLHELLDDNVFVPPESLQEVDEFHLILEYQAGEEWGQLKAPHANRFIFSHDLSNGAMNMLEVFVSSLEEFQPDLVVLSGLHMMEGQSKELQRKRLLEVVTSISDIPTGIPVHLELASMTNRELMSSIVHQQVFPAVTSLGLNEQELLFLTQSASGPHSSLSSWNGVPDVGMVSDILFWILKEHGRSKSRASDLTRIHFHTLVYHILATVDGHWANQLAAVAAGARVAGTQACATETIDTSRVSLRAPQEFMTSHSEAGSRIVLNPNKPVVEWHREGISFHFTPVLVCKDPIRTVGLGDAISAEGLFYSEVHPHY
# UniProt P52566: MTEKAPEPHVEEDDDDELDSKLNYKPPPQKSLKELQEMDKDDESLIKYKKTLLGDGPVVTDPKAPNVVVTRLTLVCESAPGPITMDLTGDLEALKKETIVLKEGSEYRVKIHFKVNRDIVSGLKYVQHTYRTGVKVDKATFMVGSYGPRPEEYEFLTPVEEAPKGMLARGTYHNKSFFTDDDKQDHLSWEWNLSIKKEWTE
# Compound: COc1ccc(Cn2ccc3ccc(C(=O)NO)cc32)cc1
# Assay: dose-dependent thermal stabilisation call (2D-TPP, DLPTP, 10% FDR) (binary (1 = stabilised)); higher = stabilised by the compound
# Conditions: system: HL-60 intact cells; concentration range 0.04-10 µM
row,Target,dose-dependent thermal stabilisation call
1,AOF1 (UniProt Q8NB78),inactive: 0
2,ARID4B (UniProt Q4LE39),inactive: 0
3,AP2A2 (UniProt O94973),inactive: 0
4,APIP (UniProt Q96GX9),inactive: 0
5,ARL15 (UniProt Q9NXU5),inactive: 0
6,ACSL5 (UniProt Q9ULC5),inactive: 0
7,ADCK4 (UniProt Q96D53),inactive: 0
8,ARHGEF2 (UniProt Q92974),inactive: 0
9,ARHGAP4 (UniProt P98171),inactive: 0
10,ADCY3 (UniProt O60266),inactive: 0
11,ALKBH2 (UniProt Q6NS38),inactive: 0
12,AIFM1 (UniProt O95831),inactive: 0
13,ACTB (UniProt P60709),inactive: 0
14,ANO6 (UniProt Q4KMQ2),inactive: 0
15,ACPP (UniProt P15309),inactive: 0
16,AKT1S1 (UniProt Q96B36),inactive: 0
17,AHSA1 (UniProt O95433),inactive: 0
18,ARFGAP3 (UniProt Q9NP61),inactive: 0
19,ANXA3 (UniProt P12429),inactive: 0

row,Target,dose-dependent thermal stabilisation call
1,AP1S2 (UniProt P56377),inactive: 0
2,ANP32A (UniProt P39687),inactive: 0
3,AKT1 (UniProt P31749),inactive: 0
4,AP3M1 (UniProt Q9Y2T2),inactive: 0
5,ARD1A (UniProt P41227),inactive: 0
6,AGTRAP (UniProt Q6RW13),inactive: 0
7,APOOL (UniProt Q6UXV4),inactive: 0
8,AKAP1 (UniProt Q92667),inactive: 0
9,AFTPH (UniProt Q6ULP2),inactive: 0
10,ADRBK1 (UniProt P25098),inactive: 0
11,AKT2 (UniProt P31751),inactive: 0
12,ADPGK (UniProt Q9BRR6),inactive: 0
13,AP2B1 (UniProt P63010),inactive: 0
14,ARHGDIB (UniProt P52566),inactive: 0
15,ALDOC (UniProt P09972),inactive: 0
16,AP1M1 (UniProt Q9BXS5),inactive: 0
17,ADAT3 (UniProt Q96EY9),inactive: 0
18,ACP2 (UniProt P11117),inactive: 0

# An excerpt of these results, tab-delimited.
row	Target	dose-dependent thermal stabilisation call
4	AP3M1 (UniProt Q9Y2T2)	inactive: 0
5	ARD1A (UniProt P41227)	inactive: 0
